Assay results as given in patent US9140705B2, “Tumor suppressor killin” (Vanderbilt University, priority 2005, dated 2015).

Test system: double-stranded or single-stranded bacteria phage PhiX174 DNA
Assay: Stability of the DNA-Killin peptide complex on agarose gel
Assay type: binding, PhiX174 bacterial phage

## Killin/N8-50: chemically synthesized peptide of 42 amino acid residues corresponding to N8-50 of Killin (SARPGRTVHVWGYRVEWKVRNGRKLQPSEWAGRGDLGGFKRRW; UniProt B2CW77 8-50, looked up, fragment)
6M urea and 150 mM EDTA, ds or ss PhiX174 DNA
  stability of peptide-DNA complex: could withstand 6M urea and 150 mM EDTA
SDS at a concentration as low as 0.1%
  stability of peptide-DNA complex: completely disrupt the Killin-DNA complex
